Laboratory results as given in patent US7449558B2, “Site-specific labelling of proteins” (National University of Singapore, priority 2003, dated 2008).
Like-named read-outs stand apart in the source and are kept apart here. Some results were stated once for a whole list of compounds, not compound by compound. For some assays here: At least one compound was matched to its structure with a doubt left.

Legend:
[1] = molecular target: N-terminal cysteine EGFP (Aequorea victoria, UniProt P42212, F64L/H231L/S65T); assay type: biochemical; conditions: in vitro, 8 μM probe; for labelling of EGFP within the first 30 min: first 30 min of the reaction; for labelling of EGFP obtained in 3 hours: within the first 3 hours of the reaction
[2] = molecular target: T1, N-terminal cysteine GST (Schistosoma japonicum, UniProt P08515); test: In vivo time-course labelling of N-terminal cysteine GST in live bacterial cells; assay type: cell-based, E. coli; conditions: 20 μM probe, 24 h time course
T1 construct: Ssp DnaB intein tag (pTWIN2) (N, cleaved yes); expressed in transfected cells; host or cells: E. coli ER2566 transformed with pTWIN2-GST
Protocol: To generate in vivo proteins having N-terminal cysteine residues, bacterial cells expressing N-terminal cysteine-containing proteins EGFP and GST fused to the C-terminus of the Ssp DnaB mini-intein were induced to undergo self-cleavage, releasing the N-terminal cysteine protein, then incubated with the probes over a period of 24 h.
Briefly, the above bacterial constructs were transformed into the E. coli expression strain ER2566 (NEB) and grown in 100 mg/L ampicillin containing LB media at 37° C. At OD600=˜0.6, 0.3 mM of IPTG (isopropyl-β-D-thiogalactoside) was added, and the cells were further grown for 12 h at room temperature to induce the fusion protein expression, as well as for the fusion protein to undergo self-cleavage and generate the desired N-terminal cysteine protein in vivo (see FIG. 12i.).
To label the protein in live cells, 20 μM of the relevant probe (5-100 μM also worked) was added directly to the LB media containing grown cells, and incubated for 24 h.
For the time-course labelling experiments, a small sample of cells was removed at each time interval, quenched with 0.01M cysteine, and lysed by boiling with SDS loading buffer. The resulting sample was analyzed directly on a 12% SDS-PAGE. Fluorescence labelling was visualized with a Typhoon™ fluorescence scanner (Amersham Biosciences). Biotinylated proteins were detected by western blotting (with anti-biotin-HRP) with the Enhanced ChemiLuminescent™ kit (Amersham).
Results are shown in FIG. 13, where i=cells labelled with probe 2 (FL), ii=cells labelled with probe 3 (TMR) and iii=cells labelled with probe 5 (biotin) (lanes 1-8 are samples taken at 0 min, 10 min, 30 min, 1 h, 3 h, 6 h, 12 h and 24 h, respectively). The results of the 24 hour time-course are quantified in FIG. 14 (FL=♦, TMR=▪ and BIOTIN=▴).

SMILES | labelling of EGFP within the first 30 min [1] | labelling of EGFP obtained in 3 hours ([1]; listed as 2) | labelling of EGFP obtained in 3 hours ([1]; listed as probe 2) | labelled protein observed within the first 3 h of labelling [2] | labelling of EGFP obtained in 3 hours [1]
O=C(CNC(=O)c1ccc(C2=C3C=CC(O)C=C3Oc3cc(O)ccc32)c(C(=O)O)c1)SCc1ccccc1 (centres unmarked) [Probe 2, N-benzylsulfanylcarbonylmethyl-6-(3,6-dihydroxy-3H-xanthen-9-yl)-isophthalamic acid] | more than 50% | more than 75% | > 75% | > 50% | 
O=C(CCCCC1SCC2NC(=O)NC21)NCC(=O)SCc1ccccc1 (centres unmarked) [Probe 5, [5-(2-oxo-hexahydro-thieno[3,4-d]imidazol-6-yl)-pentanoylamino]-thioacetic acid S-benzyl ester] | more than 50% |  |  | > 50% | > 75%
CN(C)c1ccc2c(c1)Oc1cc(N(C)C)ccc1C21OC(=O)c2cc(C(=O)NCC(=O)SCc3ccccc3)ccc21 [Probe 3, amino thioacetic acid S-benzyl ester of 5-carboxy-tetramethylrhodamine] |  |  |  | > 50% | 
